Experimental data taken from patent US10874709B2 (CAREGEN CO., LTD., priority 2017, dated 2020).

Experiment: general procedure: Fmoc solid-phase peptide synthesis; CTL resin; HoBt, Bop, DIEA
Details: whole synthesis

Ac-YKSKKGGWTH gave a crude mass of 1.15 g and a crude yield (scale of the general procedure 700 mg of resin) of 89.5%.
